A short description of this test: IkB Signaling. The conditions noted are these: ABC-DLBCL IkBa-CBG/CBR dual luciferase ratio (green luciferase fused to IkBa over red control in OCI-Ly3 lymphoma cells), 4 h. The procedure, abridged:
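Luminescence ratio of IκBα-fused green versus native red beetle luciferase in OCI-Ly3 cells, 4 h post-doxycycline with compound; red signal alone, scaled from basal (0%) to zero light (-100%), flagged nonspecific or cytotoxic effects.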

[1] abbreviates: measured here: control luc red channel unless noted.

This is one part of the list. Shown are side measurements of this screen, not its main read-out; they come without a call. Compounds called inactive in the main read-out are mostly missing here. The note in brackets gives the kind of curve behind each potency; many fits are weak.

Regarding `CC1CCCN(c2nc3c(c(=O)n(C)c(=O)n3C)n2Cc2ccccc2)C1` (configuration not stated), under setting [1], the AC50 was 31.6 µM [falling, single point]. Still for that read-out and setting: with `CCOc1ccccc1NC(=O)c1ccc(F)c(S(=O)(=O)N2CCN(c3ccc(F)cc3)CC2)c1` the figure was 20 µM [falling, partial curve]; with `O=C(NCc1nnc(SCC(=O)N2CCC(Cc3ccccc3)CC2)o1)c1ccccc1F`, 12.6 µM [falling, partial curve]; with `O=C1COc2ccc(C(=O)CSc3nnc(Cc4cccs4)n3-c3ccccc3)cc2N1`, 39.8 µM [falling, partial curve]. On the same count and under the same terms, to `Cc1cccc(C(=O)N2CCc3cc(CNC(=O)CSc4ccccc4)ccc32)c1` belongs 20 µM [falling, single point].

Take `COc1cccc(-n2c(SCc3ccc(F)cc3)nc3c([nH]c4ccccc43)c2=O)c1`: the AC50 under setting [1] is 10 µM [falling, partial curve]. Still for that read-out and setting: to `COC(=O)c1ccc(NC(=O)CN(C)S(=O)(=O)c2ccc(Br)s2)cc1` belongs 20 µM [falling, partial curve]; to `Cc1nn2c(C)c(C(=O)NCc3ccc(OC(C)C)cc3)cnc2c1-c1ccc(F)cc1`, 15.8 µM [falling, single point]. Still for that read-out and setting: to `CCn1c(=O)cc(OCC(=O)N2CCN(c3cccc(C)c3C)CC2)c2ccccc21` belongs 12.6 µM [falling, partial curve]; to `Cc1cccc(NC(=O)CN2C(=O)C(c3ccc(F)cc3)=NC23CCCCCC3)c1`, 15.8 µM [falling, partial curve]. Still for that read-out and setting: with `CC(=O)c1c(C)oc2c1cc(NS(=O)(=O)c1ccc(C(C)(C)C)cc1)c1ccccc12` the figure was 12.6 µM [falling, partial curve]; with `CNCCNS(=O)(=O)c1cccc2cnccc12`, 31.6 µM [falling, partial curve, poor fit] [measured here: IkB-luc green channel]; with `Cc1ccc(CNC(=O)C(C)n2nc(C)c3sc4ccccc4c3c2=O)cc1` (configuration not stated), 5.01 µM [falling, partial curve].

On to `Cc1ccc(CNC(=O)c2ccc(Nc3nc4ccccc4n4nnnc34)cc2)cc1`, for which the half-maximal activity concentration (AC50) under setting [1] is 1 µM [falling, full curve]. Same read-out and setting: with `Cc1ccc(NC(=O)c2oc3c(c2C)-c2[nH]ncc2CC3)c(Cl)c1` the figure was 39.8 µM [falling, single point]; with `CC(C)c1ccc(NS(=O)(=O)c2cc(Br)cc3c2N(C(=O)C2CC2)CC3)cc1`, 7.94 µM [falling, full curve]. The same measure, in the same setting: to `Cc1ccc(S(=O)(=O)N(CCc2ccccc2)CC(=O)Nc2ccccc2C)cc1` belongs 5.01 µM [falling, single point]; to `Cc1ccc(C(=O)N2CCn3c4c(c5cc(C)ccc53)CCCC42)cc1` (configuration not stated), 7.94 µM [falling, full curve].

For the molecule `COc1ccc(CCNC(=O)c2ccc3c(c2)N(Cc2ccccc2)CCS3)cc1OC`, the half-maximal activity concentration (AC50) under setting [1] is 12.6 µM [falling, partial curve]. For the molecule `Cc1cc(C)cc(NS(=O)(=O)c2ccc3[nH]cc(C(=O)NCCc4ccccc4)c(=O)c3c2)c1`, under setting [1], the concentration at half-maximal activity (AC50) was 1 µM [falling, full curve, poor fit]. Same read-out and setting: to `O=C(Cc1cccs1)Nc1nc(-c2ccccc2)cs1` belongs 3.98 µM [falling, partial curve]; to `COc1ccccc1CNC(=O)c1cc2c(s1)-c1ccc(Cl)cc1SC2`, 0.398 µM [rising, partial curve, poor fit]; to `CCOc1cccc(CC(=O)N2CCc3c([nH]c4ccc(OC)cc34)C2c2ccc(F)cc2)c1OCC` (configuration not stated), 15.8 µM [falling, partial curve].

As to `COc1ccccc1N1CCN(C(CNC(=O)C(=O)NCc2cccnc2)c2cccnc2)CC1` (configuration not stated), the AC50 under setting [1] was 12.6 µM [falling, partial curve]. Still for that read-out and setting: with `CCCCOC(=O)CN1C(=O)c2ccc(C(=O)OCCCC)cc2C1=O` the figure was 20 µM [rising, partial curve] [measured here: IkB-luc green channel]; with `CCOC(=O)c1c(NC(=O)c2cc(-c3ccc(OC)c(OC)c3)on2)sc(C)c1C`, 0.631 µM [rising, full curve]; with `COc1cc(OC)cc(-c2nnc(SCC(=O)N3CCCc4ccccc43)o2)c1`, 20 µM [falling, partial curve]. Consider `Cc1ccc(CCNC(=O)c2ccc(CS(=O)(=O)Cc3cccc(C)c3)o2)cc1`, for which the AC50 under setting [1] is 39.8 µM [falling, single point].

Turning to `COc1ccc(Cn2ccc3nc(C)c(C(=O)N4CCN(c5ccccc5F)CC4)cc3c2=O)cc1`, the concentration at half-maximal activity (AC50) under setting [1] is 20 µM [falling, partial curve].

For the molecule `Oc1c(C(Nc2nc3ccccc3s2)c2ccco2)ccc2cccnc12` (configuration not stated), the AC50 under setting [1] is 31.6 µM [rising, single point] [measured here: IkB-luc green channel]. Consider `COC(=O)c1cc2sc(C)cc2n1CC(=O)Nc1cccc(SC)c1`, for which the AC50 under setting [1] is 25.1 µM [falling, single point]. The same measure, in the same setting: with `COc1ccc(NC(=O)c2cc(S(=O)(=O)NCCC3=CCCCC3)ccc2F)cc1` the figure was 25.1 µM [falling, partial curve]. Same read-out and setting: to `COc1ccc(-c2nc3cc(C(C)C)ccc3o2)cc1NC(=O)c1ccc(C)c(Cl)c1` belongs 2 µM [falling, full curve]; to `FC(F)(F)c1ccc(-c2noc(-c3ccccc3Br)n2)cc1`, 0.501 µM [rising, full curve]; to `CCN(CC)C(=O)c1sc2c(c1C)c(=O)n(-c1ccc(C)c(C)c1)c(=O)n2Cc1cccc(Cl)c1`, 0.631 µM [rising, full curve].

Turning to `Cc1ccc(OCC(=O)Nc2ccc3nc(SCC(=O)N4CCOCC4)sc3c2)cc1C`, the AC50 under setting [1] was 6.31 µM [falling, partial curve]. The same measure, in the same setting: to `COc1ccc(-c2cc(C(=O)N3CCCc4ccccc43)no2)cc1OC` belongs 2.51 µM [falling, full curve]; to `O=C1c2ccccc2NC(c2ccc(Cl)cc2Cl)N1O` (configuration not stated), 0.631 µM [falling, full curve].

Regarding `O=c1[nH]nc(Sc2ncnc3sccc23)n1CCc1ccccc1`, the half-maximal activity concentration (AC50) under setting [1] was 15.8 µM [falling, partial curve]. Still for that read-out and setting: to `COc1cccc(C(=O)CSc2nnc(COc3cccc4cccnc34)o2)c1` belongs 25.1 µM [falling, partial curve]; to `O=C1CN(C(=O)c2ccc(S(=O)(=O)N3CCCCC3)cc2)C(c2ccc(F)cc2)c2cc(Br)ccc2N1` (configuration not stated), 0.794 µM [falling, single point]. On the same count and under the same terms, to `Cc1ccc2oc(-c3cccc(NC(=O)C4CCCO4)c3)nc2c1` (configuration not stated) belongs 12.6 µM [falling, partial curve]; to `O=C(COc1ccccc1[N+](=O)[O-])Nc1cc(-c2nc3cc(Cl)ccc3o2)ccc1Cl`, 10 µM [falling, full curve]; to `COc1cc2nc(N3CCN(C(=O)OCc4ccccc4)[C@H](C(=O)NC(C)(C)C)C3)nc(N)c2cc1OC`, 7.94 µM [falling, single point].

Take `Cc1cc(C)c(S(=O)(=O)NCc2csc(-c3ccccc3)n2)c(C)c1`: the AC50 under setting [1] was 20 µM [falling, single point]. Still for that read-out and setting: with `O=C(CSc1nc2c([nH]c3ccccc32)c(=O)n1-c1ccc(F)cc1)NCc1ccco1` the figure was 0.794 µM [rising, partial curve]; with `CCSc1nnc2c(n1)OC(c1sccc1C)N(C(C)=O)c1ccccc1-2` (configuration not stated), 15.8 µM [falling, partial curve].

For `COC(=O)c1c(C)oc2ccc(N(C(=O)Oc3ccccc3)S(=O)(=O)c3ccc(C(C)(C)C)cc3)cc12`, the AC50 under setting [1] is 0.794 µM [falling, partial curve].

In the case of `Cc1c(C)n(C)c2ccc(C(=O)NCCc3ccc(Cl)cc3)cc12`, the half-maximal activity concentration (AC50) under setting [1] is 15.8 µM [falling, single point]. On the same count and under the same terms, to `O=c1oc(-c2cccs2)nc2sc3c(c12)CCCCC3` belongs 0.0251 µM [falling, full curve]; to `Cc1c(C(=O)Nc2ccc(F)c(F)c2)oc2ccc(S(=O)(=O)N3CCC4(CC3)OCCO4)cc12`, 10 µM [falling, partial curve]; to `O=C(Nc1c(-c2ccc(F)cc2)nc2ccccn12)c1cccc(F)c1`, 25.1 µM [falling, single point].

On to `Cc1ccc(C2C=C(c3ccc(F)cc3)Nc3nc(CCCO)nn32)cc1` (configuration not stated), for which the AC50 under setting [1] was 15.8 µM [falling, partial curve]. Still for that read-out and setting: with `Cc1cccc(-n2nnc(C(=O)Nc3ccc(F)cc3)c2N)c1` the figure was 3.98 µM [falling, partial curve]; with `COc1ccc(OC)c(NC(=O)c2cnc(N3CCCC3)nc2C)c1`, 39.8 µM [falling, single point].

Consider `O=C(CN1C(=O)CCc2cc(S(=O)(=O)N3CCOCC3)ccc21)NCc1ccccc1Cl`, for which the AC50 under setting [1] is 15.8 µM [falling, partial curve]. On the same count and under the same terms, with `CCSc1ncc(Cl)c(C(=O)N(Cc2ccccc2)Cc2ccco2)n1` the figure was 20 µM [falling, single point].

Take `CC(=O)c1ccc(N2CCN(C(=O)c3cc4ccc5cccnc5c4[nH]3)CC2)cc1`: the AC50 under setting [1] is 25.1 µM [falling, single point]. For `CCc1nn(CC(=O)N2CCN(c3ccc(Cl)cc3)CC2)c(=O)c2cc3occc3n12`, under setting [1], the AC50 is 15.8 µM [falling, partial curve].

Consider `CCn1c(=O)n(-c2cccc(Cl)c2)c(=O)c2sc3ccccc3c21`, for which the AC50 under setting [1] is 1.26 µM [rising, full curve]. On to `Cc1ccc(C2CC(C(F)(F)F)n3nc(C(=O)NCc4c(C)nn(C)c4C)c(Cl)c3N2)cc1` (configuration not stated), for which the AC50 is 15.8 µM [falling, partial curve] (measured here: IkB-luc green channel) and 15.8 µM [falling, partial curve] (measured here: control luc red channel).
